The nature of data set [1]: Thirty day odor reduction at about 40° C. of Oxonia Active with candidate odor removal agents, tested by nose.
A short description of data set [2]: Odor removal from concentrated peracetic acid product (Oxonia Active) with dissolved additive, odor observed. Particulars: non-detectable odors listed as none (same odor as water).
Setting [3] is: about 50 g Oxonia Active (about 5.5% peracetic acid, 28% hydrogen peroxide) plus additive, thirty days in oven at about 40° C., tested by nose, * pre-neutralized with acetic acid.

Read-outs that look alike come from different tables or passages of the source.

For `CC(=O)O.N` [Ammonium Acetate], the “Odor Reduction” value in data set [1] is listed as “Yes”. Same read-out and setting: the entry for `N.N.O=S(=O)(O)O` [Ammonium Sulfate] is “Yes”. Regarding `OCCNCCO` [Diethanolamine], the “Odor Reduction” value in data set [1] (setting [3]) is listed as “Yes”. In the case of `NCCO` [Ethanolamine], the “Odor Reduction” value in data set [1] (setting [3]) is listed as “Yes”. On the same count and under the same terms, the entry for `CC(=O)O.CC(=O)O.NCCN` [Ethylene Diamine Diacetate] is “No”. In the case of `CC(=O)[O-].O.O.O.[Na+]` [Sodium Acetate (Trihydrate)], in data set [1], the “Odor Reduction” value is “No”.

`O=S(=O)([O-])[O-].[Na+].[Na+]` [Sodium Sulfate]: the “Odor Reduction” value in data set [1] is on record as “No”. Regarding `NC(N)=O` [Urea], the Odor entry in data set [2] (molar POAA/additive 0.5/1), in data set [2] (molar POAA/additive 1/0.25), in data set [2] (molar POAA/additive 1/0.50) and in data set [2] (molar POAA/additive 1/1) was “None” each time. For the same compound, in data set [1] (setting [3]), the “Odor Reduction” value is reported as “Yes”.

Regarding Aminomonopropanol, the “Odor Reduction” value in data set [1] (setting [3]) is reported as “No”.
